This passage reports binding results from doi:10.1101/2021.12.17.473100.

The chains behind the UniProt entries cited, without tags or fusion partners.
UniProt P20263: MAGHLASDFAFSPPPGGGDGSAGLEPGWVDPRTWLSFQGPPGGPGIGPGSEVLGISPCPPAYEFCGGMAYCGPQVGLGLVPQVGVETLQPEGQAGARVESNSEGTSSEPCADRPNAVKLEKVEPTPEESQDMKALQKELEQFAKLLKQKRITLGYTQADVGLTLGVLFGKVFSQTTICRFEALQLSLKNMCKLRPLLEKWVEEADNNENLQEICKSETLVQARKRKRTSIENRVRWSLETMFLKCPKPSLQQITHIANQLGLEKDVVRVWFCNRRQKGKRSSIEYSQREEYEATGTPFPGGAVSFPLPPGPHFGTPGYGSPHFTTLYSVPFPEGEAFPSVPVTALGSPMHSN

For this assay, the target named is OCT4 (mouse (endogenous in mouse ESCs)) (UniProt P20263). In words: co-IP.

Results are given in words; binding and its absence hold for the method and conditions named. In cells and extracts the contact can be indirect. Some entries that bind do so weakly or less than the wild type.

B1: ARRDC3 (protein, UniProt Q7TPQ9 1-414)
chain: MVLGKVKSLTISFDCLNDSNVPVYSSGDTVSGRVNLEVTGEIRVKSLKIHARGHAKVRWTESRNAGSNTAYTQNYTEEVEYFNHKDILIGHERDDDNSEEGFHTIHSGRHEYAFSFELPQTPLATSFEGRHGSVRYWVKAELHRPWLLPVKLKKEFTVFEHIDINTPSLLSPQAGTKEKTLCCWFCTSGPISLSAKIERKGYTPGESIQIFAEIENCSSRMVVPKAAIYQTQAFYAKGKMKEVKQLVANLRGESLSSGKTETWNGKLLKIPPVSPSILDCSIIRVEYSLMVYVDIPGAMDLLLSLPLVIGTIPLHPFGSRTSSVSSQCSMSMNWLALALPERPEAPPSYAEVVTEEQRRNNLAPVGACDDFERALQGPLFAYIQEFRFLPPPLYSEIDPNPDQSSEDRPSCPSR
For the molecule B1, the binding result is “binds”.
